Reference: PubChem BioAssay AID2685 (National Center for Advancing Translational Sciences (NCATS), 2010)
The other results are listed elsewhere or left out. These are further read-outs of the screen, such as a control signal, another cell line or another target. No call is given for them. Most of these compounds were active or inconclusive in the main read-out, so they are no random draw. Words in brackets tell the shape of the fitted curve; partial curves, single points and poor fits give uncertain potencies.

Assay: qHTS Assay for Lipid Storage Modulators in Drosophila S3 Cells;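 on cell number change: cells counted by Cell Tracker Red CMTPX staining in the red channel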
Conditions: BODIPY lipid droplet fluorescence, 18-24 h; for cell number change: measured here: cell count max response, cells fed with added oleic acid
How it was run: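 Drosophila S3 cells loaded with oleic acid (400 uM, as added) and compounds at several concentrations; lipid droplets imaged by 488-nm laser-scanning cytometry, 500–530 nm intensity and object ratio to cell channel. Percent activity normalized to 20 uM Triacsin C.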

[1] = measured here: cell number channel AC50, cells fed with added oleic acid
[2] = measured here: lipid fluorescence (Fed channel) AC50, cells fed with added oleic acid

Compound	cell number change [%]	AC50 [1]	AC50 [2]
Nc1nonc1NC(=O)NN=C1CCCCC1	51.5	29.1 µM [rising, single point]	18.4 µM [rising, single point]
COc1cccc(-n2c(=O)c3sccc3n(CC(=O)NC3CCCCC3)c2=O)c1	4.62		29.1 µM [rising, single point]
O=C(CNS(=O)(=O)c1ccc(Br)s1)N1CCN(C(=O)c2ccco2)CC1	-38.4	32.6 µM [falling, partial curve, poor fit]	29.1 µM [rising, single point]
Cc1cccc(C(=O)NC2CCN(C(=S)NCc3ccco3)CC2)c1	-1.15		0.651 µM [falling, partial curve, poor fit]
CCS(=O)(=O)c1ccc2oc(Nc3ccccc3C)nc2c1	2.36		0.0731 µM [rising, full curve, poor fit]
CSc1ccc(/C=N/NC(=O)CN2CCN(Cc3ccc(Cl)cc3)CC2)cc1	-2		6.51 µM [falling, single point]
CCOC(=O)C1=C(COC(=O)c2cccc(Br)c2)NC(=O)NC1C (centres undefined)	-0.54		1.3 µM [falling, full curve]
CC(=O)c1ccc(OCC(=O)N(C)CC(=O)Nc2ccc(N3CCOCC3)cc2)cc1	-8.76		13 µM [rising, single point]
CCOc1ccc(NC(=S)NNC(=O)c2cc(Br)ccc2Cl)cc1	-34	20.6 µM [falling, single point]	
Nc1c(C(=O)Nc2ccc(S(=O)(=O)N3CCCC3)cc2)sc2nc3ccc(OC(F)(F)F)cc3cc12	-74	29.1 µM [falling, single point]	11.6 µM [falling, partial curve]
O=C(NCCCO)C(=O)c1c(-c2ccccc2)cc2ccccn12	-10.9		3.66 µM [rising, single point]
CCOC(=O)C1=C(C)N=c2s/c(=C\c3cccc(OCC(=O)O)c3)c(=O)n2C1c1ccccc1 (centres undefined)	-15.8		
CCCCS(=O)(=O)NC1=NCN(CCO)CN1	-58.4	29.1 µM [falling, single point]	29.1 µM [falling, single point]
CCOC(=O)Cc1csc(NC(=O)CCCN2C(=O)c3ccccc3C2=O)n1	8.28		
CCOc1ccc(C2C(C(=O)O)c3ccccc3C(=O)N2CCN2CCOCC2)cc1 (centres undefined)		2.06 µM [falling, partial curve]	
Cc1ccc(N/N=C(\Cc2nc3ccccc3[nH]2)c2ccccc2)cc1	-15.3		29.1 µM [falling, single point]
Cc1ccc(C(=O)O/N=C(\N)Cc2cccc3ccccc23)cc1	124	29.1 µM [rising, single point]	29.1 µM [falling, single point]
Cc1nc(SCC(=O)N2c3ccccc3NC(=O)CC2C)c2c(C)c(C)sc2n1 (centres undefined)			20.6 µM [falling, partial curve]
CCOC(=O)c1c(NC(=O)COC(=O)c2ccc(O)cc2)sc(C(=O)N(C)C)c1C	20.6		0.731 µM [falling, single point]
CN(CC(=O)Nc1cccc(Cl)c1)S(=O)(=O)c1ccc2c(c1)n(C)c(=O)c(=O)n2C	-23.3		6.51 µM [falling, single point]

Compound	cell number change [%]	AC50 [1]	AC50 [2]
CC(C)CC(C)c1cc(N)nc2nc3ccccc3n12 (centres undefined)	-51.6	29.1 µM [falling, single point]	20.6 µM [falling, single point]
CC(=O)Nc1ccc(S(=O)(=O)NCCNS(=O)(=O)c2ccc(NC(C)=O)cc2)cc1	3.7		
Cc1cccc(-n2cnc3c(sc4nc(N5CCOCC5)c5c(c43)CCCC5)c2=O)c1	9.54		5.8 µM [rising, single point]
O=C(c1cccc(NS(=O)(=O)c2cccc([N+](=O)[O-])c2)c1)N1CCOCC1	-32.2	0.82 µM [falling, full curve]	29.1 µM [falling, single point]
CCN(CC)CCCn1c2c(c(SCC(=O)Nc3ccc(F)c(F)c3)nc1=O)CCC2	19.9		
CSc1nc(Cl)cc(Nc2ccc(O)cc2)n1	24.7		
CC(C)NCC(O)COc1cccc2ccccc12 (centres undefined)	10.6		29.1 µM [rising, single point]
COc1ccc(OC)c(NC(=O)NCc2ccc(F)cc2)c1	-34.5	14.6 µM [falling, partial curve]	1.16 µM [rising, full curve, poor fit]
COC(=O)CC[C@@H](C(=O)O)N1C(=O)c2ccccc2C1=O	-49.2	11.6 µM [falling, partial curve]	0.0058 µM [falling, full curve, poor fit]
CCOC(=O)c1nnn(-c2nonc2-n2cccc2)c1CCl	4.3		
CCCCNC(=O)C(=O)N/N=C/c1ccc(OCc2ccccc2)cc1	-11.4		4.11 µM [falling, full curve, poor fit]
COc1ccc(NC(=O)CN(C)C(=O)c2cccc(-n3cccc3)c2)cc1		0.461 µM [rising, single point]	
CCC(C)c1ccccc1N1CC(C(=O)Nc2ccc(S(=O)(=O)N3CCOCC3)cc2)CC1=O (centres undefined)	-0.733		18.4 µM [falling, single point]
O=C(Nc1ccc(F)cc1)c1ccc(-n2cncn2)c([N+](=O)[O-])c1	-0.152		2.06 µM [rising, partial curve]
CCC(C)NC(=O)CSc1nnc(-c2ccncc2)n1-c1ccc(OC)cc1 (centres undefined)	-9.34	2.06 µM [rising, partial curve]	
COc1ccc(-n2c(SCC(=O)C(C)(C)C)nc3ccsc3c2=O)cc1	26.1		29.1 µM [rising, single point]
Cc1cnc(C(=O)OCC(=O)NC(=O)c2ccccc2)cn1	-69	29.1 µM [falling, single point]	0.411 µM [rising, full curve]
O=C(NC(Cc1ccccc1)C(=O)N1CCN(c2ccccc2O)CC1)c1ccccc1 (centres undefined)	24.8		13 µM [rising, single point]
CC(C)Cn1c(-c2ccc(Br)cc2)c[nH]c1=S	-51.1	29.1 µM [falling, single point]	29.1 µM [falling, single point]
O=C(CCN1CCN(CCO)CC1)Nc1ccc(OCc2ccccc2)cc1	34.1	29.1 µM [rising, single point]	6.51 µM [falling, single point]

Molecules listed so far that have a furan ring, fused or not:
Compound	cell number change [%]	AC50 [1]	AC50 [2]
O=C(CNS(=O)(=O)c1ccc(Br)s1)N1CCN(C(=O)c2ccco2)CC1	-38.4	32.6 µM [falling, partial curve, poor fit]	29.1 µM [rising, single point]
Cc1cccc(C(=O)NC2CCN(C(=S)NCc3ccco3)CC2)c1	-1.15		0.651 µM [falling, partial curve, poor fit]

The results go on.

Compound	cell number change [%]	AC50 [1]	AC50 [2]
COc1ccc(CC(=O)OCC(=O)Nc2cccc(Cl)c2)cc1	59	4.61 µM [rising, full curve, poor fit]	6.51 µM [rising, single point]
CN1CCN(c2ccc(S(=O)(=O)N3CCCCC3)cc2N)CC1	-10.5		0.058 µM [falling, full curve, poor fit]
COC(=O)Nc1ccc2c(c1)N(C(=O)CCN1CCN3CCCC3C1)c1ccccc1CC2 (centres undefined)	-27.6	0.731 µM [rising, single point]	
Cc1noc(/C=C/c2ccco2)c1S(=O)(=O)N1CCC(C(=O)NCc2ccco2)CC1	-20.7	2.91 µM [falling, single point]	6.51 µM [rising, partial curve]
O=C(Nc1c(S(=O)(=O)c2ccc(Cl)cc2)csc1Br)c1ccccc1Cl	-3.7		3.66 µM [rising, single point]
COc1ccc(NC(=O)NN2CCOCC2)cc1OC	5.41		
Cc1nnc(SCC(=O)Nc2nsc(-c3ccc(Cl)cc3)n2)s1	38.1	20.6 µM [rising, single point]	2.31 µM [rising, partial curve, poor fit]
O=C(Oc1ccc2c3c(c(=O)oc2c1)CCC3)c1ccccc1[N+](=O)[O-]	15.9		0.0259 µM [rising, full curve, poor fit]
CCN(CC)c1ccc(NC(=O)c2ccccc2)cc1S(=O)(=O)Nc1ccccc1OC	-19.9		
CC(/C=C/c1ccc2c(c1)OCO2)=N/NC(=O)c1ccncc1	23.5		3.26 µM [falling, single point]
Cc1nnc2n(c1=O)C(CS(=O)(=O)c1ccccc1)CS2 (centres undefined)	12.9		0.00651 µM [falling, full curve]
O=C(CCCc1ccccc1)Nc1ccccn1	31.2	29.1 µM [rising, single point]	
COc1ccc(NC(=O)CSc2n[nH]c(C)c2[N+](=O)[O-])cc1	49.9	13 µM [rising, partial curve]	
O=C(Nc1ccccn1)c1ccc(S(=O)(=O)N2CCCC2)cc1	-0.337	0.731 µM [falling, single point]	
O=C(CCc1c[nH]c2ccccc12)N1CCN(S(=O)(=O)c2ccc(F)cc2)CC1	92.4	14.6 µM [rising, partial curve]	
O=C(CSc1nc2[nH]ncc2c(=O)[nH]1)Nc1ccccc1		6.51 µM [falling, single point]	
COc1ccc(/C=C/C(=O)OCC(=O)Nc2ccc3c(c2)OCO3)cc1	3.96		1.16 µM [rising, partial curve]
CCN(CC(=O)NCc1cccs1)C(=O)CCCOc1ccccc1	34.7	25.9 µM [rising, single point]	
